Measured values from patent US20130156781A1.
These are yes or no findings as the source states them, for the method shown. Some entries that bind do so weakly or less than the wild type.

Assays:
[1] = molecular target: Recombinant human rTRAIL receptor 1 (DR4), extracellular part, amino acids 25-239 (human) (UniProt O00220); experiment: ELISA on coated DR4
[2] = molecular target: T1, Cell surface-associated native DR4 on ST486 Burkitt's lymphoma cells (human) (UniProt O00220); experiment: flow cytometry on ST486 cells
T1 sequence: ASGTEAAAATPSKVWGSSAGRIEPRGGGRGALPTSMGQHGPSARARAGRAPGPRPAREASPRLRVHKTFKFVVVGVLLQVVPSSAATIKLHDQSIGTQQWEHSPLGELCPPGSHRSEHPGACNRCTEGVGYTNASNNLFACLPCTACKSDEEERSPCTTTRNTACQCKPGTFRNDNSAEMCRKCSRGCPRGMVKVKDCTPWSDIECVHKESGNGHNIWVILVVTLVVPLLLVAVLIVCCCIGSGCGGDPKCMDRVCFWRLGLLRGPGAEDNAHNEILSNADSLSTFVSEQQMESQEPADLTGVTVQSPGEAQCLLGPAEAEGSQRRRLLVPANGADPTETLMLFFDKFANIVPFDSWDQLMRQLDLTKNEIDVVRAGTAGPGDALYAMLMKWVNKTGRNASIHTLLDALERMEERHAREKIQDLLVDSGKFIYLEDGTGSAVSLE

[3] = molecular target: T1, Cell surface-associated native DR4 on ST486 Burkitt's lymphoma cells (human); experiment: flow cytometry on ST486 cells, 24 nM antibody
[4] = molecular target: Recombinant human rTRAIL receptor 1 (DR4), extracellular part, amino acids 25-239 (human) (UniProt O00220); experiment: ELISA on coated recombinant DR4, IgG diluted 1:5 from 1000 nM to 0.0128 nM, OD405

Measured: binding

B1: m921 IgG1 (antibody, V domains shown)
VH: QVQLQQSGPGLVKPSQTLSLTCAISGDSVSSNSAAWNWIRQSPSRGLEWLGRTYYRSKWYNDYAVSVKGRITINPDTSKNQFSLQLNSVTPEDTAVYYCARDLGVAAADSYYYYGMDVWGQGTTVTVSS
VL: QPVLTQPPSASATPGQRVTISCSGSSSNIGSNTLDWFQQLPGTAPKLLIFDTNRRPSGVPDRFSGSKSGTSASLAISGLQAEDEAVYFCATWDNSLNGAVFGGGTKLSVPR
binds: [1] | [2] | [3] | [4]
